Experimental data published in publication PMC3365051, “Sequence-Specific Binding of Recombinant Zbed4 to DNA: Insights into Zbed4 Participation in Gene Transcription and Its Association with Other Proteins”.

Target: T1, Zbed4 (mouse (cDNA from mouse retinal RNA)) (UniProt Q80WQ9)
T1 sequence (looked up): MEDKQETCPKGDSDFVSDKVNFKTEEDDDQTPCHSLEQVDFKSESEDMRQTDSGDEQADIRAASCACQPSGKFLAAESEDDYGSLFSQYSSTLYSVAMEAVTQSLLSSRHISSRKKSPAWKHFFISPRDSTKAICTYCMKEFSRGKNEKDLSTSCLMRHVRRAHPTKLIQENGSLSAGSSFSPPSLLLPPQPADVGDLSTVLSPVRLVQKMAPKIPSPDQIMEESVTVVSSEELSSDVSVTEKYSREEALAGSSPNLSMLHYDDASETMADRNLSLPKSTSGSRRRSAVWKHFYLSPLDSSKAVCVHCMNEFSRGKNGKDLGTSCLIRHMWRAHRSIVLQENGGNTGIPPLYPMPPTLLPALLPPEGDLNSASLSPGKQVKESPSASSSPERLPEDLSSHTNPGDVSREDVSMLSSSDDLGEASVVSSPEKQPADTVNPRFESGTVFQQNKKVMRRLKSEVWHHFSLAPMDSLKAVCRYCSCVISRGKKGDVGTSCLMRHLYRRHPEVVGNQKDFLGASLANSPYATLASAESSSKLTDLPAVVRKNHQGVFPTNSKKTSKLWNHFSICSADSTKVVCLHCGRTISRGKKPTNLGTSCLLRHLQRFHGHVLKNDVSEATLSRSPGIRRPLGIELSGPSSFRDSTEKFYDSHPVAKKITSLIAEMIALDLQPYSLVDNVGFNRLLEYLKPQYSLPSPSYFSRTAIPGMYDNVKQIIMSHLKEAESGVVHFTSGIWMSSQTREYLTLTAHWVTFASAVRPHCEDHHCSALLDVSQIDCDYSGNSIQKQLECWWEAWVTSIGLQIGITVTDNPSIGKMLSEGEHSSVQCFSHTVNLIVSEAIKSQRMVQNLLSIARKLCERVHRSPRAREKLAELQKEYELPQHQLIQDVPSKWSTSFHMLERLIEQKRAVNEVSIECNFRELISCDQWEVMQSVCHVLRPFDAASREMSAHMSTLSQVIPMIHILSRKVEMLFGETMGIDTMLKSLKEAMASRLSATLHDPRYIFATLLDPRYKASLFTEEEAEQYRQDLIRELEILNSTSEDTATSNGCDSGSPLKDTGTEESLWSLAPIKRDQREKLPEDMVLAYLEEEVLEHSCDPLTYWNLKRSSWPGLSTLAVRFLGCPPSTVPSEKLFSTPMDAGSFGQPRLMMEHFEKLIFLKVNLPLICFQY
Assay: EMSA
Settings: 20 ug Zbed4, 0.5 nM oligo in 20 mM HEPES pH 7.5, 150 mM NaCl, 5 mM beta-mercaptoethanol, 5% glycerol, 0.5 mM ascorbic acid, 0.5 mM propyl gallate, 10 uM ZnSO4; recombinant protein; residues 1-1168; protein details: C-terminal His8; single-stranded DNA

Sequence | binding result
AAAAAAAAGGGGAAAAAAAA [G4] | no binding
AAAAAAAAGGGAAAAAAAAA [G3] | no binding

Negatives hold for the conditions tested. At least one verdict was read from the data and is not stated in words by the source. Protein sequences can lack the tags named with them.
